Test results: PubChem BioAssay AID504594 (Broad Institute, 2011)
The whole screen tested about 2,000 compounds, of which fewer than 10 were called active.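 How the source made its calls: active means growth inhibition of at least 75% in every replicate, which also brings the mean inhibition to 75% or more; inconclusive means mean inhibition 75% or more but some replicate under 75%; inactive means the rest.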 Some of the results follow.

Assay: reduced viability of yeast carrying PfHsp90 – S. cerevisiae, BacTiter-Glo luminescence, antimalarial PfHsp90 inhibitor project, primary screen (AID 504594);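 further: 0% = DMSO neutral control wells and 100% = 20 µM radicicol control wells; higher value means stronger growth inhibition because the sign is flipped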
Details: S. cerevisiae expressing PfHsp90, BacTiter-Glo growth, 48 h; at 9.4 µM; active compounds read high
For `O=C(NC(Nc1ccccn1)C(Cl)(Cl)Cl)c1ccccc1` (stereo not given), the growth inhibition was inactive: -5.72%.
In the case of `COc1ccc(NC(=S)NCCc2c[nH]c3ccccc23)cc1`, the growth inhibition is reported as inactive: -20.9%.
With `O=C(NCCNc1ccc(Cl)cc1[N+](=O)[O-])c1cccnc1` the growth inhibition was inactive: 1.09%.
For `CC(C)Oc1ccc(C2CC(=O)N(c3ccc(C(=O)O)cc3)C2=O)cc1` (stereo not given), the growth inhibition was inactive: -11.1%.
For `c1ccc(-c2ccccn2)nc1`, the growth inhibition was inactive: -14.8%.
With `COCCOC(=O)C1=C(N)OC2=C(C(=O)CCC2)C1c1cccnc1` (stereo not given) the growth inhibition was inactive: -3.23%.
For `CCSc1nc(O)c(C2OC(=O)c3c2ccc(OC)c3OC)c(=O)n1CC` (stereo not given), the growth inhibition was inactive: 9.9%.
In the case of `CCN(CC)C(=S)SSC(=S)N(CC)CC`, the growth inhibition is reported as inactive: 68%.
For `COc1cc2cc(C(=O)O)n(C)c2c(OC)c1OC`, the growth inhibition was inactive: -14.5%.
With `CCOC(=O)C(NC(C)=O)C(O)c1ccc([N+](=O)[O-])cc1` (stereo not given) the growth inhibition was inactive: -10.7%.
In the case of `Nc1ccc2cn[nH]c2c1`, the growth inhibition is reported as inactive: 3.87%.
For `O=C1OC(Nc2ccc3c(c2)OCO3)c2ccccc21` (stereo not given), the growth inhibition was inactive: -1.88%.
With `CCNC(=O)c1c(N)sc2c1CCCCC2` the growth inhibition was inactive: -0.729%.
For `COc1ccc(C(C)N2CC34C=CC(O3)C(C(=O)OCC(C)C)C4C2=O)cc1` (stereo not given), the growth inhibition was inactive: -5.07%.
For `Nc1c2c(nc3ccccc13)CCCC2`, the growth inhibition was inactive: -5.11%.
With `COc1cc2c3c(c1)C1(C(=O)N3C(C)(C)C=C2C)C(C#N)=C(N)Oc2cc(C)oc(=O)c21` (stereo not given) the growth inhibition was inactive: 5.07%.
In the case of `COc1cc2c(cc1OC)C(C)=NC1(CCCCC1)C2`, the growth inhibition is reported as inactive: -11.3%.
For `CN(C)CCCN1c2ccccc2Sc2ccccc21`, the growth inhibition was inactive: -10.8%.
For `Cn1c(SCC(=O)c2ccccc2)nnc1-c1ccncc1`, the growth inhibition was inactive: 0.861%.
In the case of `COc1ccc(N2C(=O)[C@@H]3[C@H](C2=O)[C@H]2c4ccccc4C=CN2[C@@H]3C(C)=O)cc1`, the growth inhibition is reported as inactive: 2.31%.
In the case of `Cc1cc(C(C)(C)C)c(O)c(C)c1CC1=NCCN1`, the growth inhibition is reported as inactive: 0.506%.
With `Nc1c(C(=O)c2ccccc2)oc2ccccc12` the growth inhibition was inactive: 4.23%.
For `CC(=O)N(CCC(Cc1ccccc1)c1ccco1)Cc1ccco1` (stereo not given), the growth inhibition was inactive: -1.71%.
With `C[C@]12CC[C@@H]3c4ccc(O)cc4CC[C@H]3[C@@H]1CC[C@@H]2OC(=O)CCC(=O)O` the growth inhibition was inactive: -19.8%.
In the case of `O=C(NCc1ccc(N2CCCC2=O)cc1)c1cccc(Cl)c1`, the growth inhibition is reported as inactive: 8.67%.
For `Cc1ccc2c(c1)c1c3n2CCCNC3CCC1` (stereo not given), the growth inhibition was inactive: 4.09%.
For `COc1ccc(C2N3CC4(C)CN2CC(C)(C3)C4)cc1OC` (stereo not given), the growth inhibition was inactive: 12.1%.
With `COc1ccc2c(c1OC)C(=O)OC2C1c2c(cc3c(c2OC)OCO3)CCN1C` (stereo not given) the growth inhibition was inactive: 0.728%.
For `COc1ccc(CCNC(=O)c2ccc(Cl)cc2)cc1OC`, the growth inhibition was inactive: 13.9%.
For `CCCN1C[C@H](CSC)C[C@@H]2c3cccc4[nH]cc(c34)C[C@H]21`, the growth inhibition was inactive: 7.89%.
For `CCC(=O)Oc1ccc(/C(CC)=C(\CC)c2ccc(OC(=O)CC)cc2)cc1`, the growth inhibition was inactive: -13.5%.
For `CCN1C(=O)C(CC(=O)Nc2ccc(F)cc2)N(Cc2ccco2)C1=S` (stereo not given), the growth inhibition was inactive: -5.62%.
For `COc1ccc2[nH]cc(C(=O)CCl)c2c1`, the growth inhibition was inactive: -7.65%.
With `Nc1cccc(C(=O)O)c1` the growth inhibition was inactive: -21.3%.
For `COc1cc(CNCc2ccc(OC)c(OC)c2OC)cc(OC)c1`, the growth inhibition was inactive: 5.29%.
For `N/C(Cc1ccc(Cl)cc1Cl)=N\OC(=O)c1ccc(Br)o1`, the growth inhibition was inactive: 30.5%.
In the case of `CN(Cc1c(C(=O)N(C)Cc2ccccc2)nc2ccccn12)CC1Cc2ccccc2O1` (stereo not given), the growth inhibition is reported as inactive: 11.4%.
For `OCCC1CN(Cc2nc(-c3ccccc3)cs2)CCN1Cc1ccc(F)cc1` (stereo not given), the growth inhibition was inactive: -1.52%.
In the case of `c1ccc2c(c1)CCOC2CNCCCN1CCCCC1` (stereo not given), the growth inhibition is reported as inactive: -0.298%.
For `CCN1C(=O)C(CC(=O)Nc2ccc(OC)cc2)N(CCc2ccc(F)cc2)C1=S` (stereo not given), the growth inhibition was inactive: -2%.
For `CC1(C)Oc2ccc(C#N)cc2[C@@H](N2CCCC2=O)[C@@H]1O`, the growth inhibition was inactive: 7.78%.
For `CC[N+](C)(C)Cc1ccccc1Br`, the growth inhibition was inactive: -0.648%.
In the case of `O=C(NCc1ccccc1Cl)NC(=O)c1ccccc1`, the growth inhibition is reported as inactive: -17.2%.
For `Cc1oncc1C(=O)Nc1ccc(C(F)(F)F)cc1`, the growth inhibition was inactive: 4.91%.
With `COc1ccc(C(Cl)=C(c2ccc(OC)cc2)c2ccc(OC)cc2)cc1` the growth inhibition was inactive: 3.91%.
For `O=C(O)c1cccnc1Nc1cccc(C(F)(F)F)c1`, the growth inhibition was inactive: 10.6%.
For `CC(CCc1ccccc1)NCC(O)c1ccc(O)c(C(N)=O)c1` (stereo not given), the growth inhibition was inactive: -2.57%.
In the case of `CCc1cc2c(=O)c(-c3ccc4c(c3)OCCO4)coc2c(CN2CCCCC2C)c1O` (stereo not given), the growth inhibition is reported as inactive: -11.5%.
For `Cc1ccc(Cl)c(OCCCN(C)Cc2ccccc2)c1`, the growth inhibition was inactive: 3.97%.
In the case of `C[C@]12CCC(=O)C=C1[C@H](O)C[C@@H]1[C@@H]2[C@@H](O)C[C@@]2(C)[C@H]1CC[C@]2(O)C(=O)CO`, the growth inhibition is reported as inactive: -5.05%.
For `Cc1[nH]nc(-c2ccc(O)cc2O)c1Oc1ccccc1`, the growth inhibition was inactive: 1.63%.
With `Fc1ccc(C(c2ccc(F)cc2)N2CCN(C/C=C/c3ccccc3)CC2)cc1` the growth inhibition was inactive: -7.94%.
For `CCOC(=O)C(=O)Nc1ccc(Oc2ccccc2)cc1`, the growth inhibition was inactive: 6.51%.
In the case of `COc1ccccc1C(=O)Nc1cc2cc(Br)ccc2oc1=O`, the growth inhibition is reported as inactive: -5.87%.
In the case of `CCCCC(=O)O[C@H]1CC[C@H]2[C@@H]3CCc4cc(O)ccc4[C@H]3CC[C@]12C`, the growth inhibition is reported as inactive: -6.39%.
For `CC(=O)C1=C(O)C(=O)N(CC(=O)O)C1c1ccccc1Cl` (stereo not given), the growth inhibition was inactive: 6.61%.
With `N=C(N)c1ccc(OCCCCCOc2ccc(C(=N)N)cc2)cc1` the growth inhibition was inactive: 2.21%.
With `CCN(CC)CCN1C(=O)C(=O)/C(=C(/O)c2c(C)[nH]c(C(=O)OC)c2C)C1c1cccnc1` (stereo not given) the growth inhibition was inactive: -4.71%.
With `CC/C(=C1/C(=O)CC(C)(C)C(C(=O)OC)C1=O)N1CCCC1` (stereo not given) the growth inhibition was inactive: -4.07%.
With `CC(=O)c1c(N)nc2n(c1=O)CCCCC2` the growth inhibition was inactive: 2.63%.
In the case of `O=C(O)[C@@H](O)c1ccccc1`, the growth inhibition is reported as inactive: -2.46%.
In the case of `C/C(CCc1oc2ccc(Cl)cc2c1-c1ccc(C)o1)=N\O`, the growth inhibition is reported as inactive: -3.04%.
With `Nc1nc(Cl)nc2c1ncn2[C@H]1C[C@H](O)[C@@H](CO)O1` the growth inhibition was inactive: -12.6%.
With `Cc1ccsc1/C=N\NC(=O)c1ccc2c(c1)OCO2` the growth inhibition was inactive: -11.9%.
For `CNCCCC1c2ccccc2C=Cc2ccccc21`, the growth inhibition was inactive: 4.11%.
For `O=C(O)CC(O)C(=O)O` (stereo not given), the growth inhibition was inactive: 2.49%.
In the case of `O=C(Nc1cccc(C(=O)O)c1)/C(=C\c1ccccc1)NC(=O)c1ccccc1`, the growth inhibition is reported as inactive: -1.43%.
In the case of `CC(C)N(Cc1nccn1C)C(=O)CC1C(=O)NCCN1Cc1ccccc1C(F)(F)F` (stereo not given), the growth inhibition is reported as inactive: -0.671%.
For `C[C@]12CCC(=O)C=C1CC[C@@H]1[C@@H]2[C@@H](O)C[C@@]2(C)[C@H]1CC[C@]2(O)C(=O)CO`, the growth inhibition was inactive: 7.79%.
In the case of `CC(=O)N1CCN(c2ccc(NC(=O)/C=C/c3ccccc3)cc2)CC1`, the growth inhibition is reported as inactive: 10.6%.
In the case of `COc1ccc(-c2coc3c(CN4CCOCC4)c(O)ccc3c2=O)cc1`, the growth inhibition is reported as inactive: -0.608%.
With `N/C(=N\OC(=O)c1cccc(Br)c1)c1ccncc1` the growth inhibition was inactive: -13%.
For `Nc1cccc2nc3ccccc3cc12`, the growth inhibition was inactive: -18%.
In the case of `O=C(NC1CC1)C1CCN(C2CCN(C(=O)Cc3ccc(F)cc3)CC2)CC1`, the growth inhibition is reported as inactive: -1.38%.
For `CCCc1cc(=O)[nH]c(=S)[nH]1`, the growth inhibition was inactive: -10.9%.
For `COC(=O)CN1C(=S)N(c2ccc(F)cc2)C(=O)C1CC(=O)Nc1ccccc1` (stereo not given), the growth inhibition was inactive: 9.33%.
For `COc1ccc(CCN(C)CCCC(C#N)(c2ccc(OC)c(OC)c2)C(C)C)cc1OC` (stereo not given), the growth inhibition was inactive: 2.9%.
With `C[C@]12CC[C@@H]3c4ccc(O)cc4CC[C@H]3[C@@H]1CC[C@@H]2O` the growth inhibition was inactive: -10.1%.
For `CCC[C@@H]1C[C@@H](C(=O)N[C@H]([C@@H](C)O)[C@H]2O[C@H](SC)[C@H](O)[C@@H](O)C2O)N(C)C1` (stereo not given in full), the growth inhibition was inactive: -9.09%.
In the case of `COc1cccc(OC)c1C(=O)Nc1nc2ccc([N+](=O)[O-])cc2s1`, the growth inhibition is reported as inactive: -13.1%.
For `CCCN(CCC)S(=O)(=O)c1ccc(C(=O)O)cc1`, the growth inhibition was inactive: -0.263%.
In the case of `COc1ccc(C2NC(C(=O)O)Cc3c2[nH]c2ccccc32)cc1CN1CCN(c2ccc(F)cc2)CC1` (stereo not given), the growth inhibition is reported as inactive: -5.92%.
For `CSCCC1NC2(C(=O)Nc3ccc(Cl)cc32)[C@@H]2C(=O)N(C3CCCC3)C(=O)[C@H]12` (stereo not given in full), the growth inhibition was inactive: -3.34%.
With `CN1C2CCC1CC(OC(c1ccccc1)c1ccccc1)C2` (stereo not given) the growth inhibition was inactive: -4.57%.
In the case of `CN(C)CCOC(c1ccccc1)c1ccccc1`, the growth inhibition is reported as inactive: -9.86%.
For `CN1CCc2cccc3c2[C@@H]1Cc1ccc(O)c(O)c1-3`, the growth inhibition was inactive: -2.67%.
For `O=C(NCc1ccco1)/C(=C\C=C\c1ccccc1)NC(=O)c1ccccc1Br`, the growth inhibition was inactive: -0.463%.
In the case of `CO[C@@H]1O[C@@H]2COC(c3ccccc3)O[C@@H]2[C@@H](OC)[C@@H]1O` (stereo not given in full), the growth inhibition is reported as inactive: 19.6%.
With `CC(=O)N1CCN(c2ccc(OC[C@H]3CO[C@](Cn4ccnc4)(c4ccc(Cl)cc4Cl)O3)cc2)CC1` the growth inhibition was active: 94.4%.
In the case of `COc1ccc(S(N)(=O)=O)cc1C(N)=O`, the growth inhibition is reported as inactive: 4.32%.
In the case of `CC(=O)[C@H]1CC[C@H]2[C@@H]3CCC4=CC(=O)CC[C@]4(C)[C@H]3CC[C@]12C`, the growth inhibition is reported as inactive: -16.8%.
In the case of `Cc1ccc2[nH]c3c(=O)n(CCc4cnc[nH]4)cnc3c2c1`, the growth inhibition is reported as inactive: -0.612%.
In the case of `COC(=O)C1=CN(Cc2cccs2)C=C(C(=O)OC)C1c1cccc(Cl)c1`, the growth inhibition is reported as inactive: -7.66%.
With `CC(C)NC[C@@H](O)c1ccc(O)c(O)c1` the growth inhibition was inactive: 4.1%.
With `O=C(/C=C/c1ccco1)NCc1ccc2c(c1)OCO2` the growth inhibition was inactive: 8.47%.
